In this data set the test system is iPSC-CMs. Nature of the data set: Cardiotoxicity test: spontaneous calcium oscillations (FLIPR, EarlyTox dye). Particulars: concentration-dependent. On the procedure: Spontaneous calcium oscillations in iPSC-CMs were measured using the FLIPR system in the absence or presence of test compounds. […] This approach allowed the evaluation of proarrhythmic effects of drug candidates based on calcium dynamics occurring within the iPSC-CMs.
Figure 4 Utilization of hPSC-CMs as a platform for high-throughput testing of the cardiotoxicity and effectiveness of drugs. Spontaneous calcium oscillations in iPSC-CMs were measured using the FLIPR system in the absence or presence of test compounds. (a,b) Cardiotoxicity test. […] (b) Testing of the compounds known for their adverse effects in humans. […] (c,d) Efficacy test. […]
Spontaneous calcium transients in contracting CMs were monitored using the FLIPR Tetra® High Throughput Cellular Screening System (Molecular Devices). hPSC-CMs were plated on the Matrigel-coated wells (8 × 10^4 cells per well) of a 96-well plate. Confluency was monitored after 2 days, and the strong synchronous contractions of cells were confirmed prior to the cardiac calcium oscillation assay. […] Calcium oscillations were measured at 20, 40, and 60 min after treatment. The acquired data were analyzed for beat frequency and peak width at 10% amplitude using ScreenWorks Peak Pro software version 2.0 (Molecular Devices).

As for `Cc1cccc(CCN2CCC(C(=O)c3ccc(NS(C)(=O)=O)cc3)CC2)n1` [E-4031], the “effect on beating rate” value is on record as “decrease in the beating rate”.

Values taken from paper PMC11277421, “Advancing Cardiovascular Drug Screening Using Human Pluripotent Stem Cell-Derived Cardiomyocytes” (International Journal of Molecular Sciences, 2024).
